# According to publication PMC4986951:
# These are yes or no findings as the source states them, for the method shown. For part of these data: In cells and extracts the contact can be indirect. Some results given as binding are weak or reduced against the parent protein; the word gives no strength. Tags and fused reporters may be left off the sequences shown.
# T1: BD-PI4Kγ5 (Arabidopsis type II phosphatidylinositol 4-kinase PI4Kγ5, two-hybrid bait) (Arabidopsis thaliana) (UniProt Q9C671)
# T1 sequence: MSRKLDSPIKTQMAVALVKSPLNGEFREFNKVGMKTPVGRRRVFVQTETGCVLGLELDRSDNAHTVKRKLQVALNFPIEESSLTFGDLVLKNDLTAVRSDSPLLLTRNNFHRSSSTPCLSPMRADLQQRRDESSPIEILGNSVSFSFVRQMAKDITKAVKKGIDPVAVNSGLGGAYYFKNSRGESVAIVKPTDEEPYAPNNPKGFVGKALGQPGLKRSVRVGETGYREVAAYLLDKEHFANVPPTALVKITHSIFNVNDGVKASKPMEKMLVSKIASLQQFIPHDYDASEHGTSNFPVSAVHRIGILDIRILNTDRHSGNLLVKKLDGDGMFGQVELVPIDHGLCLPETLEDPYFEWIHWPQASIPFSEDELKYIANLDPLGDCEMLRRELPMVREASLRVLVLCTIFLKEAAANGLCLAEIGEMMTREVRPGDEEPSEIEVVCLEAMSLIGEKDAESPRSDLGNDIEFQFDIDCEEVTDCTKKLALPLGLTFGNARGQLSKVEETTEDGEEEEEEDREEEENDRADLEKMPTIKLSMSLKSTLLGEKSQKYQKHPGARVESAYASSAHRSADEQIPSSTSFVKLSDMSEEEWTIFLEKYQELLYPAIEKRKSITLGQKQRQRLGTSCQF
# T2: pGBKT7-ANAC078 (ANAC078 as two-hybrid bait fusion) (Arabidopsis thaliana) (UniProt Q84K00)
# T2 sequence: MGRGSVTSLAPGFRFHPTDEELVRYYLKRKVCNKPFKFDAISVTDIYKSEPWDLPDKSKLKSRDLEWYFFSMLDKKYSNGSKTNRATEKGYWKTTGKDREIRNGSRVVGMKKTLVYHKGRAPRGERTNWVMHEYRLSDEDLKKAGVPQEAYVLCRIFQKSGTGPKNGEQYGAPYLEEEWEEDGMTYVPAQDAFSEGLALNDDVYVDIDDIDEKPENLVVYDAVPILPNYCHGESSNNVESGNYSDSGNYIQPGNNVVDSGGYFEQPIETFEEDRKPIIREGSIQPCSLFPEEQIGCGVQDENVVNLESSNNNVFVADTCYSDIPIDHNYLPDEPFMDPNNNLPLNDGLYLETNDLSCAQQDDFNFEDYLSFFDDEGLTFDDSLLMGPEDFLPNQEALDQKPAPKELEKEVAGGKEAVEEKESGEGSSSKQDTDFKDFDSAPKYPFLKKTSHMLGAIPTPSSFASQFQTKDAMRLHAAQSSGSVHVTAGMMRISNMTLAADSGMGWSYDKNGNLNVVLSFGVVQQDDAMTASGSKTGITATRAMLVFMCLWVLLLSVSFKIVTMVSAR
# T3: ANAC078-cLuc (Arabidopsis thaliana) (UniProt Q84K00)
# T3 sequence: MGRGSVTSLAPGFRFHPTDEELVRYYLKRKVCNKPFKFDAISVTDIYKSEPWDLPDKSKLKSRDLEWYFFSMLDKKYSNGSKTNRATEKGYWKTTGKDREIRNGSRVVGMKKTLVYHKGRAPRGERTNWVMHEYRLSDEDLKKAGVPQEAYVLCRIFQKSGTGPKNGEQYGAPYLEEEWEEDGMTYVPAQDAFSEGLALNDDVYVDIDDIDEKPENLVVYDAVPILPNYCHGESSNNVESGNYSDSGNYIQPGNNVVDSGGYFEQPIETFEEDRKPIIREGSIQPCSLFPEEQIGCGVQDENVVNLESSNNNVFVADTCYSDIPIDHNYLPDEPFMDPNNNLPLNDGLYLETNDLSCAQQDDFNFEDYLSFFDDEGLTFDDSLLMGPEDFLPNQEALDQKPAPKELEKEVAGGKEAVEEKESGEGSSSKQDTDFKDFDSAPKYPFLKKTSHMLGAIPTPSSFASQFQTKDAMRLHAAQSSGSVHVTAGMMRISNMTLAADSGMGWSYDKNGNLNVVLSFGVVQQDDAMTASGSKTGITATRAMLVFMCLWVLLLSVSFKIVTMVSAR
# How the values were obtained:
# [1] = target: T1, BD-PI4Kγ5 (Arabidopsis type II phosphatidylinositol 4-kinase PI4Kγ5, two-hybrid bait) (Arabidopsis thaliana); experiment: two-hybrid; library screen with BD-PI4Kγ5 as bait on SD (-Leu/-Trp/-His/-Ade) plates; candidate clones confirmed by growth after co-transformation
# [2] = target: T2, pGBKT7-ANAC078 (ANAC078 as two-hybrid bait fusion) (Arabidopsis thaliana); experiment: two-hybrid; yeast co-transformed with pGBKT7-ANAC078 and pGADT7-PI4Kγ5, dilution series on SD(-Leu-Trp-His-Ade) with X-α-gal; α-Gal activity; pGBKT7-ANAC078 with empty pGADT7 as negative control
# [3] = target: T3, ANAC078-cLuc (Arabidopsis thaliana); experiment: split reporter; firefly luciferase complementation; PI4Kγ5-nLuc and ANAC078-cLuc co-expressed through Agrobacterium in Nicotiana benthamiana leaves, observed after 48 h
binder,measurement,setting,value
"ANAC078 fragment (271–410 aa), prey clones of the two-hybrid screen (domain or fragment, UniProt Q84K00 271-410) EEDRKPIIREGSIQPCSLFPEEQIGCGVQDENVVNLESSNNNVFVADTCYSDIPIDHNYLPDEPFMDPNNNLPLNDGLYLETNDLSCAQQDDFNFEDYLSFFDDEGLTFDDSLLMGPEDFLPNQEALDQKPAPKELEKEV",binding,[1],binds
"pGADT7-PI4Kγ5 (PI4Kγ5 as two-hybrid prey fusion) (enzyme, UniProt Q9C671 1-630) MSRKLDSPIKTQMAVALVKSPLNGEFREFNKVGMKTPVGRRRVFVQTETGCVLGLELDRSDNAHTVKRKLQVALNFPIEESSLTFGDLVLKNDLTAVRSDSPLLLTRNNFHRSSSTPCLSPMRADLQQRRDESSPIEILGNSVSFSFVRQMAKDITKAVKKGIDPVAVNSGLGGAYYFKNSRGESVAIVKPTDEEPYAPNNPKGFVGKALGQPGLKRSVRVGETGYREVAAYLLDKEHFANVPPTALVKITHSIFNVNDGVKASKPMEKMLVSKIASLQQFIPHDYDASEHGTSNFPVSAVHRIGILDIRILNTDRHSGNLLVKKLDGDGMFGQVELVPIDHGLCLPETLEDPYFEWIHWPQASIPFSEDELKYIANLDPLGDCEMLRRELPMVREASLRVLVLCTIFLKEAAANGLCLAEIGEMMTREVRPGDEEPSEIEVVCLEAMSLIGEKDAESPRSDLGNDIEFQFDIDCEEVTDCTKKLALPLGLTFGNARGQLSKVEETTEDGEEEEEEDREEEENDRADLEKMPTIKLSMSLKSTLLGEKSQKYQKHPGARVESAYASSAHRSADEQIPSSTSFVKLSDMSEEEWTIFLEKYQELLYPAIEKRKSITLGQKQRQRLGTSCQF",binding,[2],binds
"PI4Kγ5-nLuc (enzyme, UniProt Q9C671 1-630) MSRKLDSPIKTQMAVALVKSPLNGEFREFNKVGMKTPVGRRRVFVQTETGCVLGLELDRSDNAHTVKRKLQVALNFPIEESSLTFGDLVLKNDLTAVRSDSPLLLTRNNFHRSSSTPCLSPMRADLQQRRDESSPIEILGNSVSFSFVRQMAKDITKAVKKGIDPVAVNSGLGGAYYFKNSRGESVAIVKPTDEEPYAPNNPKGFVGKALGQPGLKRSVRVGETGYREVAAYLLDKEHFANVPPTALVKITHSIFNVNDGVKASKPMEKMLVSKIASLQQFIPHDYDASEHGTSNFPVSAVHRIGILDIRILNTDRHSGNLLVKKLDGDGMFGQVELVPIDHGLCLPETLEDPYFEWIHWPQASIPFSEDELKYIANLDPLGDCEMLRRELPMVREASLRVLVLCTIFLKEAAANGLCLAEIGEMMTREVRPGDEEPSEIEVVCLEAMSLIGEKDAESPRSDLGNDIEFQFDIDCEEVTDCTKKLALPLGLTFGNARGQLSKVEETTEDGEEEEEEDREEEENDRADLEKMPTIKLSMSLKSTLLGEKSQKYQKHPGARVESAYASSAHRSADEQIPSSTSFVKLSDMSEEEWTIFLEKYQELLYPAIEKRKSITLGQKQRQRLGTSCQF",binding,[3],binds
